Results are given in words; binding and its absence hold for the method and conditions named. In cells and extracts the contact can be indirect. Some entries that bind do so weakly or less than the wild type. Sequences can lack the tags named with a protein.

Results on 1 molecule are retold here after publication PMC12372870.

Assay [1] has as its target T1, HA-tagged wtSFPQ (splicing factor proline- and glutamine-rich, canonical isoform) (human) (UniProt P23246).
T1 sequence: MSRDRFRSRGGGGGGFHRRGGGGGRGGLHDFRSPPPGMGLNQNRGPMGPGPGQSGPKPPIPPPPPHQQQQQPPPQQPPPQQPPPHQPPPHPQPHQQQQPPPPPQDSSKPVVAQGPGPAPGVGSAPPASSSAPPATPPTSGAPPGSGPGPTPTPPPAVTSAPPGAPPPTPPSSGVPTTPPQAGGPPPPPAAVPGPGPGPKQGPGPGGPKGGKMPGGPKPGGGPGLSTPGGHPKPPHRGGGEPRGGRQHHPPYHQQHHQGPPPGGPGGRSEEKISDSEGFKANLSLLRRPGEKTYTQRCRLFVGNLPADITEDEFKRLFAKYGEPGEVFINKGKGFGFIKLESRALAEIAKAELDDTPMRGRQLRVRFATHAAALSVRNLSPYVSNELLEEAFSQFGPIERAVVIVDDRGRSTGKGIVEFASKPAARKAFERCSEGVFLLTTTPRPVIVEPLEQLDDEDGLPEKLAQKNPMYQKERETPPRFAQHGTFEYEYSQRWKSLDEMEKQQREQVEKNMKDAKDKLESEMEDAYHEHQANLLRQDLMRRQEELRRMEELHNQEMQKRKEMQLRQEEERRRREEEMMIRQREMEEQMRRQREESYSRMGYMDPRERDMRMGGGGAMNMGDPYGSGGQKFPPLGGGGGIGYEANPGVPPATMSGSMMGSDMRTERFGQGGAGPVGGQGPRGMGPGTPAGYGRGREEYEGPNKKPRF
The assay can be described thus: co-IP; anti-HA magnetic beads on lysates of N2A cells expressing HA-SFPQ variants (empty vector as negative control), overnight at 4°C; 50 mM Hepes pH 7.4, 150 mM NaCl, 1% IGEPAL, 1 mM EDTA; Western blot; cells untreated or under sodium arsenite-induced oxidative stress. On the technique in general: In western blotting, separated proteins are transferred to a membrane and probed.

The target in assay [2] is T2, HA-tagged altSFPQ (alternative SFPQ isoform lacking the C-terminal nuclear localization signal) (human) (UniProt P23246).
T2 sequence: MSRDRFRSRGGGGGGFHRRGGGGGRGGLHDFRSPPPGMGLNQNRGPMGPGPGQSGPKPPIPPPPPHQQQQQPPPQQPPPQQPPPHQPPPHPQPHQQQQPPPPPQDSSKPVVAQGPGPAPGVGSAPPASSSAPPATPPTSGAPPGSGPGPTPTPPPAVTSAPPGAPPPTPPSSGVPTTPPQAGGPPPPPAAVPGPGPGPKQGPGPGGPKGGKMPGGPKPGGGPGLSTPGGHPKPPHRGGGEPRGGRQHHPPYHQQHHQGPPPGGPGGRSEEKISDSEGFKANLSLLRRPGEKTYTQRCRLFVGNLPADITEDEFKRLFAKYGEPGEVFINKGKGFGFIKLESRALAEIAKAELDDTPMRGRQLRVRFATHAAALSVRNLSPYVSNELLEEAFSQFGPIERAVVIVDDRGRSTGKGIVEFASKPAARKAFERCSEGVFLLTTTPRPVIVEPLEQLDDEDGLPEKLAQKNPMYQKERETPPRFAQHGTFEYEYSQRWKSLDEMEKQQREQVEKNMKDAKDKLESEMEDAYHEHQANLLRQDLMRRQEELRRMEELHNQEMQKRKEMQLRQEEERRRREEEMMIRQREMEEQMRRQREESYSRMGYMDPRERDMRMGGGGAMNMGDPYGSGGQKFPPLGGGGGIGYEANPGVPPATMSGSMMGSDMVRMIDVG
The description is as above.

B1: NONO (protein, UniProt Q99K48 1-473)
chain: MQSNKAFNLEKQNHTPRKHHQHHHQQHHQQQQQQQQQQPPPPIPANGQQASSQNEGLTIDLKNFRKPGEKTFTQRSRLFVGNLPPDITEEEMRKLFEKYGKAGEVFIHKDKGFGFIRLETRTLAEIAKVELDNMPLRGKQLRVRFACHSASLTVRNLPQYVSNELLEEAFSVFGQVERAVVIVDDRGRPSGKGIVEFSGKPAARKALDRCSEGSFLLTTFPRPVTVEPMDQLDDEEGLPEKLVIKNQQFHKEREQPPRFAQPGSFEYEYAMRWKALIEMEKQQQDQVDRNIKEAREKLEMEMEAARHEHQVMLMRQDLMRRQEELRRMEELHNQEVQKRKQLELRQEEERRRREEEMRRQQEEMMRRQQEGFKGTFPDAREQEIRMGQMAMGGAMGINNRGAMPPAPVPPGTPAPPGPATMMPDGTLGLTPPTTERFGQAATMEGIGAIGGTPPAFNRPAPGAEFAPNKRRRY
As for B1, the binding entry in assay [1] and in assay [2] was “binds” throughout.
